# Measured values from PubChem BioAssay AID2685 (National Center for Advancing Translational Sciences (NCATS), 2010).
# This is one part of the list. Shown are side measurements of this screen, not its main read-out; they come without a call. The list favours compounds with an active or inconclusive main result. The note in brackets gives the kind of curve behind each potency; many fits are weak.
# Test: qHTS Assay for Lipid Storage Modulators in Drosophila S3 Cells;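 for cell number change: cells counted by Cell Tracker Red CMTPX staining in the red channel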
# Settings: BODIPY lipid droplet fluorescence, 18-24 h; for cell number change: measured here: cell count max response, cells fed with added oleic acid
# How it was run: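 Drosophila S3 cells loaded with oleic acid (400 uM, as added) and compounds at several concentrations; lipid droplets imaged by 488-nm laser-scanning cytometry, 500–530 nm intensity and object ratio to cell channel. Percent activity normalized to 20 uM Triacsin C.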
# [1] = measured here: lipid fluorescence (Fed channel) AC50, cells fed with added oleic acid
# [2] = measured here: cell number channel AC50, cells fed with added oleic acid
SMILES,cell number change [%],AC50 [1],AC50 [2]
CC(=O)c1ccc(OCc2cc(C(=O)N3CCCCC3c3cccnc3)no2)cc1 (stereo not given),-0.886,,
Cc1cc([N+](=O)[O-])cnc1Sc1nccn1C,-5.47,"73.1 nM [falling, full curve, poor fit]",
Cc1cccc(OCC(=O)Nc2cccc(C(=O)NCC(C)C)c2)c1,23.8,,
COc1ccc(CNC(=O)CCS(=O)(=O)c2ccc(Br)cc2)cc1,20.9,"6510 nM [rising, full curve, poor fit]",
COc1cc(C(C)=O)ccc1OCC(=O)N(CCC1=CCCCC1)c1c(N)n(Cc2ccccc2)c(=O)[nH]c1=O,33.6,,"14600 nM [rising, single point]"
Cc1cc2n(n1)C(c1sccc1C)Nc1c(C)cccc1-2 (stereo not given),-15.8,,
Cc1ccc(-c2nnn(CC(=O)N(c3cccc(F)c3)C(C(=O)NC3CCCC3)c3ccncc3)n2)o1 (stereo not given),-13.2,,
O=C1CN(C(=O)COC(=O)CCS(=O)(=O)c2ccccc2)c2ccccc2N1,13.8,"3660 nM [rising, full curve]",
O=C(COC(=O)c1ccc2ncsc2c1)NC(=O)c1ccccc1,115,"29100 nM [rising, partial curve]","29100 nM [rising, single point]"
CN(CC(=O)Nc1ccc(Cl)cc1)S(=O)(=O)c1cccc2cccnc12,49.8,"6510 nM [rising, partial curve, poor fit]","1640 nM [rising, partial curve]"
COc1cc(OC)cc(-c2c(C#Cc3ccsc3)c3cc(-c4cccc5[nH]ccc45)ccc3n2C)c1,-6.1,"9200 nM [rising, single point]",
Cn1c(CC(=O)NNC(=O)c2ccc(F)cc2Cl)nc2ccccc21,33.6,"731 nM [rising, full curve, poor fit]","731 nM [rising, full curve, poor fit]"
Cc1nn(-c2ccccc2)c(C)c1/C=N/NC(=O)CSc1nc2ccccc2c(=O)n1-c1ccccc1,14.2,,
COc1ccc(NC(=O)N2CCn3c2nc2ccccc23)cc1,-4.96,,
Oc1cc(NCc2ccc(F)cc2)cc2cccnc12,42.4,"18400 nM [rising, partial curve]","16400 nM [rising, partial curve]"
COc1ccc(NC(=O)C2CCN(S(=O)(=O)c3ccc(OC)c(OC)c3)CC2)cc1,,"6510 nM [falling, single point]",
CCN(CC)S(=O)(=O)c1ccc(NC(=O)Cn2c(=O)sc3ccccc32)cc1,-40.3,,"16400 nM [falling, single point]"
COc1ccc2cc(-c3ccsc3)ncc2c1,-26.8,"651 nM [falling, partial curve]","92 nM [falling, full curve, poor fit]"
N=C(N)c1ccc(N)cc1,-8.49,,"164 nM [falling, full curve, poor fit]"
CC(CC(=O)NCc1ccccc1)C1CCCO1 (stereo not given),5.06,"820 nM [falling, full curve, poor fit]",
Cc1c(C(N)=O)sc(N)c1C(=O)OC(C)C,2.48,,"517 nM [falling, single point]"
Cc1ccc(C(=O)CSc2nc(C(C)C)nc3ccccc23)cc1,36.4,"259 nM [rising, full curve, poor fit]","4110 nM [rising, partial curve, poor fit]"
CCN(CCCNC(=O)CCNC(=O)Cn1ccc2ccccc2c1=O)c1ccccc1,,"5170 nM [falling, partial curve, poor fit]",
COc1cccc(-c2cn(C[C@H]3CC[C@@H]([C@@H]4CC[C@H](Cn5cc(-c6cccc(OC)c6)nn5)O4)O3)nn2)c1,-0.971,,
C1=C(c2ccco2)N2CCN=C2S1,-6.57,"130 nM [falling, full curve, poor fit]",
CCOc1ccc(OCC(=O)N(CCC2=CCCCC2)c2c(N)n(Cc3ccccc3)c(=O)[nH]c2=O)cc1,-39.7,"9200 nM [falling, partial curve]","651 nM [falling, partial curve, poor fit]"
O=C(CN1CCN(c2cccc(Cl)c2)CC1)N1CCCC1,4.06,"7.31 nM [falling, full curve, poor fit]",
CCC(CC)C1C(C#N)=C(N)Oc2n[nH]c(C)c21 (stereo not given),,"206 nM [falling, full curve, poor fit]",
CC(C)n1ncc2c(C(=O)Nc3cccc(S(=O)(=O)N(C)C)c3)cc(C3CC3)nc21,-7.52,"2060 nM [falling, partial curve]",

# Arranged by SMILES length (ascending): 3 of the compounds above.
SMILES,cell number change [%],AC50 [1],AC50 [2]
COc1ccc(NC(=O)N2CCn3c2nc2ccccc23)cc1,-4.96,,
Cc1ccc(C(=O)CSc2nc(C(C)C)nc3ccccc23)cc1,36.4,"259 nM [rising, full curve, poor fit]","4110 nM [rising, partial curve, poor fit]"
COc1cccc(-c2cn(C[C@H]3CC[C@@H]([C@@H]4CC[C@H](Cn5cc(-c6cccc(OC)c6)nn5)O4)O3)nn2)c1,-0.971,,
